Assay results: publication PMC7819943, “Rice protein-binding microarrays: a tool to detect cis-acting elements near promoter regions in rice”
The list shows a part of the results.

Sequences of proteins named here, by UniProt entry; tags and fusion partners are left off.
UniProt Q0JBA9, entry or part of it: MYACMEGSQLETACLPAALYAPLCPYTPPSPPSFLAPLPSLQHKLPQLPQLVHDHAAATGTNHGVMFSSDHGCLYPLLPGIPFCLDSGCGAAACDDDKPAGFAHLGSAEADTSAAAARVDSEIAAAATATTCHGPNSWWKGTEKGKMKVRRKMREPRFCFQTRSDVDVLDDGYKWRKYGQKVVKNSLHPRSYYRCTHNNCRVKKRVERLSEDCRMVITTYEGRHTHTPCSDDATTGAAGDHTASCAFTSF

These sequences were tested against OsWRKY34 (Oryza sativa, UniProt Q0JBA9 1-250) (assay: protein-binding microarray (RPBM); PBS, 2% BSA, 51.3 ng/ul salmon testes DNA, 50 uM zinc acetate, 200 nM TF, 25 C, 1 h; high values mean tight binding). Details: protein: recombinant; tags: N-terminal polyhistidine and DsRed monomer fusion (pET32a); label: CyDye5-dUTP incorporated in the synthesized complementary strand; 3' TTTTT single-stranded linker to array surface; dsDNA, one strand shown.
In short: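 For the binding signal, per-feature fluorescence intensity was read in arbitrary units on an Axon 4000B scanner. Before scanning, a 2% BSA-blocked custom Agilent array made double-stranded with Cy5-dUTP was washed after 1 h at 25 °C with 200 nM protein and 50 µM zinc acetate. The proteins were Ni–NTA-purified transcription factors with N-terminal polyhistidine and DsRed fusions, expressed in E. coli BL21-CodonPlus.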

| Sequence | binding signal |
| --- | --- |
| CGCTGCCGTCGCCGTGCCTTAGTCGCTCTCCTTCTCTCCACGGAGTCACCTAGTGCAG | 9250 fluorescence intensity (a.u.) |
| TCCTTCCACCTTTTTAATTTCTTTAATTTGCATGTCTCTCCGGAGTCACCTAGTGCAG | 8390 fluorescence intensity (a.u.) |
| ACCTCCTTGCCACCACTGCCTCGGTGCCAGCTGTGTCCTACGGAGTCACCTAGTGCAG | 11500 fluorescence intensity (a.u.) |
| CCCACACGTCAGCCACCCCAAACAGCCCATCGCCACGCCACGGAGTCACCTAGTGCAG | 8760 fluorescence intensity (a.u.) |
| CCCTGCTGCTTTTCTGGTTTCCTAATTATTCTCCTCAATTCGGAGTCACCTAGTGCAG | 9880 fluorescence intensity (a.u.) |
| TGCGTGTTTTGTCCGCTTTTGCATTCGATTTTCTTTGATGCGGAGTCACCTAGTGCAG | 9260 fluorescence intensity (a.u.) |
| ACGCCCTAATCCTCTCTCCTTCTCACATGCCGCCGCCGATCGGAGTCACCTAGTGCAG | 9480 fluorescence intensity (a.u.) |
| CACACCGTGCGCTGTGCTCCACTCCACCATCGCTCGCGACCGGAGTCACCTAGTGCAG | 8290 fluorescence intensity (a.u.) |
| AATTCAAATATGCTTCCACGTATTATTTAGCCACTCATTTCGGAGTCACCTAGTGCAG | 11200 fluorescence intensity (a.u.) |
| CAAATTTTCCGTCGTGTCGTTCTAATTTCAATCAAATTTCCGGAGTCACCTAGTGCAG | 13700 fluorescence intensity (a.u.) |
| AATTTGCAATTGCCCGTTCTTTTATACGCAGAGACTCCGACGGAGTCACCTAGTGCAG | 8640 fluorescence intensity (a.u.) |
| GAACCTTGGCGATCTCTCTCTTTTCTACCTCTCTTCATACCGGAGTCACCTAGTGCAG | 12000 fluorescence intensity (a.u.) |
| GTAATCAGATCGTCAATATTTTTTTTCAAATCGTAATTATCGGAGTCACCTAGTGCAG | 9180 fluorescence intensity (a.u.) |
| CCAAGGCTGCAATTTTTTCCCCATAATCAGGTATACGAATCGGAGTCACCTAGTGCAG | 8750 fluorescence intensity (a.u.) |
| CCTCGCCTCCACGACCGGTCGCCGCCTCGTCCGCGACCGCCGGAGTCACCTAGTGCAG | 8480 fluorescence intensity (a.u.) |
| TAGTGATCCGAAACATAGACTGCATTTTTCTCATATTTTCCGGAGTCACCTAGTGCAG | 9050 fluorescence intensity (a.u.) |
| CAATGTTGTTGAGACCATTTTGCCTGATTGTTTTCTATTCCGGAGTCACCTAGTGCAG | 9670 fluorescence intensity (a.u.) |
| GAAAATAATTGTCGTACACTCGCAGCTATATTTGTTATTTCGGAGTCACCTAGTGCAG | 8340 fluorescence intensity (a.u.) |
| CTCCTCCTGTCCTGGCCCTTGTCTTCTCCACGTCTCTCCCCGGAGTCACCTAGTGCAG | 9200 fluorescence intensity (a.u.) |
| TCCTACTACTAGTCAATCGTTTGACTATTCGTCCTATTAACGGAGTCACCTAGTGCAG | 11900 fluorescence intensity (a.u.) |
| GCCTACAAAACTCGAGTATTATCTTCATCCATCCCTAATCCGGAGTCACCTAGTGCAG | 9800 fluorescence intensity (a.u.) |

| Sequence | binding signal |
| --- | --- |
| ACATGTAGCCATATGGGTTCTACGGTTTTTATTATTTTTTCGGAGTCACCTAGTGCAG | 8380 fluorescence intensity (a.u.) |
| CCCCACATCTTTTGCTAGCATGCCCCTACCCATTCATATTCGGAGTCACCTAGTGCAG | 10500 ± 300 fluorescence intensity (a.u.) |
| GCTCGCGCGCGCCGCGACGTCGTCGGAGCCAACATTATTTCGGAGTCACCTAGTGCAG | 8080 fluorescence intensity (a.u.) |
| CTAGTGTGCATTTAACCACAGCAGCTGGTATGATAGTCCCCGGAGTCACCTAGTGCAG | 8490 fluorescence intensity (a.u.) |
| TCTCGATTCCAGCCCAACTAGCGCCACTCCCACCTGGGCCCGGAGTCACCTAGTGCAG | 8170 fluorescence intensity (a.u.) |
| ACCTACATTGGTCTTACTGGCATGCCTGAACTTCCCTGCACGGAGTCACCTAGTGCAG | 8170 fluorescence intensity (a.u.) |
| ATCTGATCTGCTGGGTTTGTGGGAAGGGGCATATAAGGAGCGGAGTCACCTAGTGCAG | 12000 fluorescence intensity (a.u.) |
| CCCGCCCATCGCCGCTCCGCCCTCTCCGCCGCTGGCCTCACGGAGTCACCTAGTGCAG | 8420 fluorescence intensity (a.u.) |
| CTTGTACTTGGTGGTATACCCCTAGCTGCTCGCCTTTGTGCGGAGTCACCTAGTGCAG | 10200 fluorescence intensity (a.u.) |
| TCTCTCTCTCTCTCTCTCTCTCTCTCTCTCTGTCTCTCTCCGGAGTCACCTAGTGCAG | 10200 fluorescence intensity (a.u.) |
| AATCGGGGAAGCCTATCGGTTAGTTAGGAGTTGAGTTGACCGGAGTCACCTAGTGCAG | 9230 fluorescence intensity (a.u.) |
| GCCTAGTTGATTGAACATTCGTTTTCTTTCAACAAATAAGCGGAGTCACCTAGTGCAG | 8310 fluorescence intensity (a.u.) |
| TCCGGCTATTCTCATTGCCGGCCAAGCCTTTTTCTTCTACCGGAGTCACCTAGTGCAG | 8130 fluorescence intensity (a.u.) |
| CACACTTTATTCTCCTATATCTAAAGAGCACAGGAACGGGCGGAGTCACCTAGTGCAG | 8370 fluorescence intensity (a.u.) |
| ATTCCTGTGTTTTTCCTGTGTTTTGCAATCCTCTGTTTTACGGAGTCACCTAGTGCAG | 10200 fluorescence intensity (a.u.) |
| ACACTTACCTAGCTAATTGTCCAACTGCCCCTACCTTGGACGGAGTCACCTAGTGCAG | 9630 fluorescence intensity (a.u.) |
| GTACGTACAACATTGTGTATCTGTTTTGTAAGTTATTAACCGGAGTCACCTAGTGCAG | 9710 fluorescence intensity (a.u.) |
| GCCGCCGCGCTCGCCCACCGCCCGCCCATCGCCGCTCCGCCGGAGTCACCTAGTGCAG | 9990 fluorescence intensity (a.u.) |
| AATTACAATTTCTTAATCTTTGCGTCTAAACCAGTTACACCGGAGTCACCTAGTGCAG | 8490 fluorescence intensity (a.u.) |
| ACTAATTATTGTGTTAGTGAGCTTTCTTTGTTTTTTTGTTCGGAGTCACCTAGTGCAG | 9670 fluorescence intensity (a.u.) |
| CTTCACTCACATTGTACCTAAGCTGGCCTTGACTGGAAAGCGGAGTCACCTAGTGCAG | 8600 fluorescence intensity (a.u.) |

Random excerpt: three records from the list

| Sequence | binding signal |
| --- | --- |
| GCCGCCGCGCTCGCCCACCGCCCGCCCATCGCCGCTCCGCCGGAGTCACCTAGTGCAG | 9990 fluorescence intensity (a.u.) |
| CACACTTTATTCTCCTATATCTAAAGAGCACAGGAACGGGCGGAGTCACCTAGTGCAG | 8370 fluorescence intensity (a.u.) |
| TCTCGATTCCAGCCCAACTAGCGCCACTCCCACCTGGGCCCGGAGTCACCTAGTGCAG | 8170 fluorescence intensity (a.u.) |
